These are yes or no findings as the source states them, for the method shown. In cells and extracts the contact can be indirect. Some results given as binding are weak or reduced against the parent protein; the word gives no strength.

Chains of the proteins cited; added tags and fusions are not shown.
UniProt Q93009: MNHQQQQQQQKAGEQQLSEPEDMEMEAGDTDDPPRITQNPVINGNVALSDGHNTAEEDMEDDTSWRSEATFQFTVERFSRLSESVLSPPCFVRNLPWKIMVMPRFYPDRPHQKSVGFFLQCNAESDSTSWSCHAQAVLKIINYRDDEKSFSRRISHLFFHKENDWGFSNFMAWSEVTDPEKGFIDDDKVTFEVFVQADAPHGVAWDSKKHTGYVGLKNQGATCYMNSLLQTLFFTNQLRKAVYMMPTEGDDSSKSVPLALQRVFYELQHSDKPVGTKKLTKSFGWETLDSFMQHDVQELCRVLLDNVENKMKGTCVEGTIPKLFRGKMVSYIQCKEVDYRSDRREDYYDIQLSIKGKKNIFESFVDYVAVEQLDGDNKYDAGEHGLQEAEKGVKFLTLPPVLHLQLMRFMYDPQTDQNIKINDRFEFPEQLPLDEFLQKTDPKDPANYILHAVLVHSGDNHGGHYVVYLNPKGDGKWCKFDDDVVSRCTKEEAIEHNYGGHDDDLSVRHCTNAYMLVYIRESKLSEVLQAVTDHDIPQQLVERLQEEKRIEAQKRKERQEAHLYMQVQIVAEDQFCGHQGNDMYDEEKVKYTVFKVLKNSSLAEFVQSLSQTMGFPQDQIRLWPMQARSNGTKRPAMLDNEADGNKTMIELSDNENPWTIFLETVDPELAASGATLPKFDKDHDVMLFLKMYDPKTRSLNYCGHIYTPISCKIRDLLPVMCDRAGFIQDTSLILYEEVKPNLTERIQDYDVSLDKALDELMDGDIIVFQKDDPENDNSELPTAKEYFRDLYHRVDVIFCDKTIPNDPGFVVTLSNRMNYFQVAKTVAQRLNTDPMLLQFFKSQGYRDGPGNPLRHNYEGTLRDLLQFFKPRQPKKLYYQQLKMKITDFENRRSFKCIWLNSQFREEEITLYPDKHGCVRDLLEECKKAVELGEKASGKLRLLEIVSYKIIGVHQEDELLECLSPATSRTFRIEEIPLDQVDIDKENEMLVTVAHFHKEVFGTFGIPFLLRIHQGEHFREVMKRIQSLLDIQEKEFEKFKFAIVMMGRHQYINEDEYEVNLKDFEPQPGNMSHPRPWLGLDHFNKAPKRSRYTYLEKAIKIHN

One molecule from PMC3401373 can be followed below.

This experiment deals with Flag-tagged USP7S expressed in AG06173 cells (human) (UniProt Q93009). Briefly: co-IP; AG06173 cells co-transfected with USP7S and PPM1G expression plasmids (0.5 pmol each, 24 hr); whole cell extract (500 μg); Flag-tagged USP7S pulled down with Flag-agarose beads (magnetic beads as mock control); western blot with USP7S and PPM1G antibodies. (In western blotting, separated proteins are transferred to a membrane and probed.)

B1: PPM1G expressed in AG06173 cells (enzyme, UniProt O15355 1-546)
chain: MGAYLSQPNTVKCSGDGVGAPRLPLPYGFSAMQGWRVSMEDAHNCIPELDSETAMFSVYDGHGGEEVALYCAKYLPDIIKDQKAYKEGKLQKALEDAFLAIDAKLTTEEVIKELAQIAGRPTEDEDEKEKVADEDDVDNEEAALLHEEATMTIEELLTRYGQNCHKGPPHSKSGGGTGEEPGSQGLNGEAGPEDSTRETPSQENGPTAKAYTGFSSNSERGTEAGQVGEPGIPTGEAGPSCSSASDKLPRVAKSKFFEDSEDESDEAEEEEEDSEECSEEEDGYSSEEAENEEDEDDTEEAEEDDEEEEEEMMVPGMEGKEEPGSDSGTTAVVALIRGKQLIVANAGDSRCVVSEAGKALDMSYDHKPEDEVELARIKNAGGKVTMDGRVNGGLNLSRAIGDHFYKRNKNLPPEEQMISALPDIKVLTLTDDHEFMVIACDGIWNVMSSQEVVDFIQSKISQRDENGELRLLSSIVEELLDQCLAPDTSGDGTGCDNMTCIIICFKPRNTAELQPESGKRKLEEVLSTEGAEENGNSDKKKKAKRD
As to B1, the binding result is on record as “binds”.
